{"source": "PubChem BioAssay AID743121 (NCATS, 2013)", "aim": "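Partners whose loss is lethal together with topoisomerase I blockade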 (primary screen)", "cell system": "MDA-MB-231 cells, a human breast cancer line", "reagents": "single siRNA against human genes, 20 nM siRNA (0.8 pmol per well)", "time to read-out": "120 h (drug added 48 h after transfection, read 72 h later)", "challenge": "camptothecin 20 nM (about EC30) for 72 h; vehicle 0.1% DMSO in parallel plates", "detection": "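CellTiter-Glo ATP signal, scaled to control siRNA as percent viability; sensitisation given as log2 of untreated divided by camptothecin-treated viability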", "direction": "log2 vehicle/camptothecin viability: higher = stronger sensitisation to camptothecin", "hit rule": "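Each gene scored by redundant siRNA activity (RSA) over its individual siRNA ratios; a gene is called active at p < 0.001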", "note": "The deposit covers about 26,000 reagents; this is an unselected part. Of all reagents, 167 (0.63%) got an active call. 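Calls are per gene from RSA p-values that are not deposited; an individual active-marked siRNA can sensitise only weakly.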 Reagents against one gene are numbered here. Further read-outs or replicates are left out here."}
{"Target gene":"NR3C1","reagent no.":1,"log2 vehicle/camptothecin viability":0.223,"activity call":"inactive"}
{"Target gene":"NR3C1","reagent no.":2,"log2 vehicle/camptothecin viability":-0.304,"activity call":"inactive"}
{"Target gene":"NR3C1","reagent no.":3,"log2 vehicle/camptothecin viability":0.148,"activity call":"inactive"}
{"Target gene":"NR3C1","reagent no.":4,"log2 vehicle/camptothecin viability":-0.109,"activity call":"inactive"}
{"Target gene":"PDGFRA","reagent no.":1,"log2 vehicle/camptothecin viability":-0.0967,"activity call":"inactive"}
{"Target gene":"PDGFRA","reagent no.":2,"log2 vehicle/camptothecin viability":-0.389,"activity call":"inactive"}
{"Target gene":"PDGFRA","reagent no.":3,"log2 vehicle/camptothecin viability":-0.345,"activity call":"inactive"}
{"Target gene":"PDGFRA","reagent no.":4,"log2 vehicle/camptothecin viability":-0.388,"activity call":"inactive"}
{"Target gene":"GPRASP1","reagent no.":1,"log2 vehicle/camptothecin viability":0.921,"activity call":"inactive"}
{"Target gene":"GPRASP1","reagent no.":2,"log2 vehicle/camptothecin viability":-0.188,"activity call":"inactive"}
{"Target gene":"GPRASP1","reagent no.":3,"log2 vehicle/camptothecin viability":0.148,"activity call":"inactive"}
{"Target gene":"GPRASP1","reagent no.":4,"log2 vehicle/camptothecin viability":0.436,"activity call":"inactive"}
{"Target gene":"STX2","reagent no.":1,"log2 vehicle/camptothecin viability":0.265,"activity call":"inactive"}
{"Target gene":"STX2","reagent no.":2,"log2 vehicle/camptothecin viability":-0.157,"activity call":"inactive"}
{"Target gene":"STX2","reagent no.":3,"log2 vehicle/camptothecin viability":-0.31,"activity call":"inactive"}
{"Target gene":"STX2","reagent no.":4,"log2 vehicle/camptothecin viability":-0.132,"activity call":"inactive"}
{"Target gene":"SIGLEC9","reagent no.":1,"log2 vehicle/camptothecin viability":-0.0232,"activity call":"inactive"}
{"Target gene":"SIGLEC9","reagent no.":2,"log2 vehicle/camptothecin viability":-0.1,"activity call":"inactive"}
{"Target gene":"SIGLEC9","reagent no.":3,"log2 vehicle/camptothecin viability":-0.504,"activity call":"inactive"}
{"Target gene":"SIGLEC9","reagent no.":4,"log2 vehicle/camptothecin viability":-0.345,"activity call":"inactive"}
{"Target gene":"SRD5A1","reagent no.":1,"log2 vehicle/camptothecin viability":-0.311,"activity call":"inactive"}
{"Target gene":"SRD5A1","reagent no.":2,"log2 vehicle/camptothecin viability":-0.142,"activity call":"inactive"}
{"Target gene":"SRD5A1","reagent no.":3,"log2 vehicle/camptothecin viability":-0.519,"activity call":"inactive"}
{"Target gene":"SRD5A1","reagent no.":4,"log2 vehicle/camptothecin viability":-0.126,"activity call":"inactive"}

3 entries from above, sorted by “log2 vehicle/camptothecin viability”, lowest first:
{"Target gene":"SIGLEC9","reagent no.":3,"log2 vehicle/camptothecin viability":-0.504,"activity call":"inactive"}
{"Target gene":"SIGLEC9","reagent no.":2,"log2 vehicle/camptothecin viability":-0.1,"activity call":"inactive"}
{"Target gene":"SIGLEC9","reagent no.":1,"log2 vehicle/camptothecin viability":-0.0232,"activity call":"inactive"}
